According to the supplement of paper PMC12823440, “Inhibitors supercharge kinase turnover through native proteolytic circuits” (Nature, 2025):
Some of the results follow. Hit calls seldom repeat between salt and free forms of one compound.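 In K562 cells expressing nanoluciferase-fused kinases, luminescence was recorded at 4 h intervals between 2 and 18 h, normalized as percent of control with DMSO at 100% and a positive control at 0%. A significant (2 sigma) signal drop marks a time point as decreased. The authors' rule for a hit is not shown and takes in more than the number of time points.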

Sequences of proteins named here, by UniProt entry; tags and fusion partners are left off. A change or cut given only in a name is not applied to a line headed by its entry.
UniProt Q9Y463, whole entry, looked up: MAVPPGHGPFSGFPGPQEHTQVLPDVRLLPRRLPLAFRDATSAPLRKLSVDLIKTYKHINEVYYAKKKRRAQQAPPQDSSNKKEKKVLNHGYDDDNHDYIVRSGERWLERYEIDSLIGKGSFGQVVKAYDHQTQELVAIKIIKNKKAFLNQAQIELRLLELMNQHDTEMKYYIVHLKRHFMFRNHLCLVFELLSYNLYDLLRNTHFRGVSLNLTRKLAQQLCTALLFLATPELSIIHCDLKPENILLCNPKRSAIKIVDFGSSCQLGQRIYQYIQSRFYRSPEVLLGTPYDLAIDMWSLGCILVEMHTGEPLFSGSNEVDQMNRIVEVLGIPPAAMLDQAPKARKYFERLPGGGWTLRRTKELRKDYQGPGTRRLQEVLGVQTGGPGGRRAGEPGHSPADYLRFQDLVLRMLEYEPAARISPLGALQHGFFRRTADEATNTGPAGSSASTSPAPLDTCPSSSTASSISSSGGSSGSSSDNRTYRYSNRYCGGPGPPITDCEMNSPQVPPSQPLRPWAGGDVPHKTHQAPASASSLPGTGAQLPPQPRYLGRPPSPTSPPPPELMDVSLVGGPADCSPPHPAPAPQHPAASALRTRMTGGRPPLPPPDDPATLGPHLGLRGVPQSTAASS
UniProt P53350, whole entry: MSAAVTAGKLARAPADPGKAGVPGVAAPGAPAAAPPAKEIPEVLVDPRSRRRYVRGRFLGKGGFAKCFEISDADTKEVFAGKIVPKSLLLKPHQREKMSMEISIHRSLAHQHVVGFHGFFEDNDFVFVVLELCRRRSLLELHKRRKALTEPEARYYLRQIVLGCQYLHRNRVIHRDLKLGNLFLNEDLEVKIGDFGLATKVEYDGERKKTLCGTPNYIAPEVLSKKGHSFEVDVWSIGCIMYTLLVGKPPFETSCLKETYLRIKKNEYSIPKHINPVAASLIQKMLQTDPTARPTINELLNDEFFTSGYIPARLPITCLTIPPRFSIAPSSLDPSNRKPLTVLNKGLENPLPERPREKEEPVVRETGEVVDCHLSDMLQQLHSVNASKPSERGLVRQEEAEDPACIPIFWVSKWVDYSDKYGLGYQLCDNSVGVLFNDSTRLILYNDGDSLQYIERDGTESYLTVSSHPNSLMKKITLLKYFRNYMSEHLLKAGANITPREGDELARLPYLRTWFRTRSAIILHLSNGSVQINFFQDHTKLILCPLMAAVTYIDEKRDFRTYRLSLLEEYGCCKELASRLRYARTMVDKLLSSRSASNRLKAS
UniProt P09619, whole entry: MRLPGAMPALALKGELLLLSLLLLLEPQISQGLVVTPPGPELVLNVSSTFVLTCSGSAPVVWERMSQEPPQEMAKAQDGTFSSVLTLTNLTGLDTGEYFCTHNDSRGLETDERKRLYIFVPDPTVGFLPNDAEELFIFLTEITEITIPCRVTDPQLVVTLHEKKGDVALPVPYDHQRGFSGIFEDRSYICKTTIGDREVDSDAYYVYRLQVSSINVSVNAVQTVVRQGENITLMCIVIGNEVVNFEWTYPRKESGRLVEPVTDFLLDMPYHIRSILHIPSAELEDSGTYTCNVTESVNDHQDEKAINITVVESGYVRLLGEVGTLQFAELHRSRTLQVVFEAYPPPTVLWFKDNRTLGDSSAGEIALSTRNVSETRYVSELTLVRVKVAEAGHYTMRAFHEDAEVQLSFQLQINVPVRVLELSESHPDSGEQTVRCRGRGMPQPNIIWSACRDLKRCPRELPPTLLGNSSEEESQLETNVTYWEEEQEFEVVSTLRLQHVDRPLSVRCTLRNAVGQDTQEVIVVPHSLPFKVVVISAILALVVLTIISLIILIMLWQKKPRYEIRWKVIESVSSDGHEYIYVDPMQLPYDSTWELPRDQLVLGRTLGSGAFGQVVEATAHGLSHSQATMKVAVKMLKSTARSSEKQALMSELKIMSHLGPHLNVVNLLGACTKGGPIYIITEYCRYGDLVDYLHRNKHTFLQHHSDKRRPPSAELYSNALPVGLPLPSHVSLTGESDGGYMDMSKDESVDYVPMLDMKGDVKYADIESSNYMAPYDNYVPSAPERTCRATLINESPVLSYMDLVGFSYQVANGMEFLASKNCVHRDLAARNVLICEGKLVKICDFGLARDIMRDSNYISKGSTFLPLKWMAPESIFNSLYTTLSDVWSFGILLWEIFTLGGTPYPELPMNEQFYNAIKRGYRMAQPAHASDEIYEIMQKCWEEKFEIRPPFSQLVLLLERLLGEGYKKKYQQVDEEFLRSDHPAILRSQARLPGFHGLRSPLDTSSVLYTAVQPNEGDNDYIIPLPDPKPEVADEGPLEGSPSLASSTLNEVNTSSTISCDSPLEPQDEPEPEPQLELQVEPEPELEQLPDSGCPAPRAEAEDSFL
UniProt Q9UM73: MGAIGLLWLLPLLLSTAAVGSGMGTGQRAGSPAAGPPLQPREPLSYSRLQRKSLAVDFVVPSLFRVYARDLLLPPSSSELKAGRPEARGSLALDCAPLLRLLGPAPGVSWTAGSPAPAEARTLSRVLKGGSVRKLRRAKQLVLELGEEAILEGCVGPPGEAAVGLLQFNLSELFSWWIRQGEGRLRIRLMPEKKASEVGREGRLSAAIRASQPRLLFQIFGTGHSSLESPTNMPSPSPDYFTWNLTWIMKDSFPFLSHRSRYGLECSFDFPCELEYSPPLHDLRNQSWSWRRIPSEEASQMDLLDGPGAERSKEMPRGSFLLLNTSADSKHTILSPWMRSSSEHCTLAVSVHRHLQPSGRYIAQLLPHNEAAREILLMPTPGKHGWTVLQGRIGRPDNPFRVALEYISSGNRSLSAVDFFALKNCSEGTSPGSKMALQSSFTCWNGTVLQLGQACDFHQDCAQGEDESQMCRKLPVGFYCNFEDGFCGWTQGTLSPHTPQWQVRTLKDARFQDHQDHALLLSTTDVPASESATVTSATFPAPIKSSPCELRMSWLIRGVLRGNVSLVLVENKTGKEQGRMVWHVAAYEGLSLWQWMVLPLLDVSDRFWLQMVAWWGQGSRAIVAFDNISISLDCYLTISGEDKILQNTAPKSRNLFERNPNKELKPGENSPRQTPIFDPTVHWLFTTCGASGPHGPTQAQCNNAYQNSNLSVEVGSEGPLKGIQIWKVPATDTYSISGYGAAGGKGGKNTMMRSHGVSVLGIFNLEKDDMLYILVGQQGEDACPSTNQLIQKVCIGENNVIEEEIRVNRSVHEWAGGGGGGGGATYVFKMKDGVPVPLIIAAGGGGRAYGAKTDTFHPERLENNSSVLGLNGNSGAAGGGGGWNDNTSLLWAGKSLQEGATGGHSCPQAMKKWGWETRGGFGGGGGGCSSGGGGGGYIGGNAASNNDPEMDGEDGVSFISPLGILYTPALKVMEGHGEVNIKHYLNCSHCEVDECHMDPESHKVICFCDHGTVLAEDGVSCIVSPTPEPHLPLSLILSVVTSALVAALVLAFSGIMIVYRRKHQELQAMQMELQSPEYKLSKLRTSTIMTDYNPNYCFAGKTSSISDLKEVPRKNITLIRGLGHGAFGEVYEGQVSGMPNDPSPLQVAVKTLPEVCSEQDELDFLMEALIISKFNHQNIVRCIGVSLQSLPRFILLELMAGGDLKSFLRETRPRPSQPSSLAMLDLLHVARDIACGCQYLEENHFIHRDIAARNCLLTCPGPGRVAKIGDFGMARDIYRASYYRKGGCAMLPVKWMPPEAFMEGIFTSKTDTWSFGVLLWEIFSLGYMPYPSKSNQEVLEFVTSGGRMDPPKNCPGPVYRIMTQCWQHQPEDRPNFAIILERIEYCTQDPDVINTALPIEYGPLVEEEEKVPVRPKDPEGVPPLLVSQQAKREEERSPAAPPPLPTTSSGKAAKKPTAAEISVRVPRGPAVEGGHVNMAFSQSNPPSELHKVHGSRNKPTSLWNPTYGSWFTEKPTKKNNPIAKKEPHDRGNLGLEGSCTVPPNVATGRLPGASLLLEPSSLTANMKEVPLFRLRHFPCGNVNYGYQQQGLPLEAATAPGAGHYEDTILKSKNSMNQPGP
UniProt P51813: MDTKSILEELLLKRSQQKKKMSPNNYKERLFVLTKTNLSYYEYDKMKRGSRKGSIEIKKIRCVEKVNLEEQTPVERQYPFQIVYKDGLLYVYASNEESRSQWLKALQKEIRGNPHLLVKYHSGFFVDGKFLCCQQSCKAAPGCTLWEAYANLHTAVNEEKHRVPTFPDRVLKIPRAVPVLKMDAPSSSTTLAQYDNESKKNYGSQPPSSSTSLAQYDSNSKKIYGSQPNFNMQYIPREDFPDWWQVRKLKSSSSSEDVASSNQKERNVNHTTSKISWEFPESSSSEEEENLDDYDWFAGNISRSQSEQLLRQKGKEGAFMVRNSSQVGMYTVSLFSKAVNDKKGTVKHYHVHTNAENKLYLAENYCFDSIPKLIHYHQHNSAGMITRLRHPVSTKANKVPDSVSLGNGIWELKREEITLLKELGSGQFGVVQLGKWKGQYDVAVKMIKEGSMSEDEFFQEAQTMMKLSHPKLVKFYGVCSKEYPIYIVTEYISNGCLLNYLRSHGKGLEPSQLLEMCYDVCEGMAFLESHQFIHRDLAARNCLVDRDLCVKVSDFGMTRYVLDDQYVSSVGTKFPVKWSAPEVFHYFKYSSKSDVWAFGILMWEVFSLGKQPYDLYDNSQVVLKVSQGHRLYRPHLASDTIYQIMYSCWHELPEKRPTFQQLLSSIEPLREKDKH
UniProt P43403: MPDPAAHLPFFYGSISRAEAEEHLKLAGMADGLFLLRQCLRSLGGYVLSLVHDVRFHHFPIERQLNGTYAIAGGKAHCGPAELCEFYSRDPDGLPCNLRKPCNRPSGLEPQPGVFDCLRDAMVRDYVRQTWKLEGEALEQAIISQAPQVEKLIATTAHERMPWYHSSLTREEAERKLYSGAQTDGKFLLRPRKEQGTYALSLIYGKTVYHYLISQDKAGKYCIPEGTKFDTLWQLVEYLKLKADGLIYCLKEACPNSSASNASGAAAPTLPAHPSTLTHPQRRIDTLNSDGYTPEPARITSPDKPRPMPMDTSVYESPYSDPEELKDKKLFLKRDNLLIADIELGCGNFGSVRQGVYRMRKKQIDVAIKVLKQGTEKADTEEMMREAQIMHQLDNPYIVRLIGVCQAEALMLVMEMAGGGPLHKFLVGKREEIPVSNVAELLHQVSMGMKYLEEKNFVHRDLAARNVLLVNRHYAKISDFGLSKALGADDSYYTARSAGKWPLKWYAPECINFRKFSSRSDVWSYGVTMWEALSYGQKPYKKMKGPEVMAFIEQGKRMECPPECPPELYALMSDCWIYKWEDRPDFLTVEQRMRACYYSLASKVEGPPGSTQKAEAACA
UniProt P07949, whole entry M918T, looked up: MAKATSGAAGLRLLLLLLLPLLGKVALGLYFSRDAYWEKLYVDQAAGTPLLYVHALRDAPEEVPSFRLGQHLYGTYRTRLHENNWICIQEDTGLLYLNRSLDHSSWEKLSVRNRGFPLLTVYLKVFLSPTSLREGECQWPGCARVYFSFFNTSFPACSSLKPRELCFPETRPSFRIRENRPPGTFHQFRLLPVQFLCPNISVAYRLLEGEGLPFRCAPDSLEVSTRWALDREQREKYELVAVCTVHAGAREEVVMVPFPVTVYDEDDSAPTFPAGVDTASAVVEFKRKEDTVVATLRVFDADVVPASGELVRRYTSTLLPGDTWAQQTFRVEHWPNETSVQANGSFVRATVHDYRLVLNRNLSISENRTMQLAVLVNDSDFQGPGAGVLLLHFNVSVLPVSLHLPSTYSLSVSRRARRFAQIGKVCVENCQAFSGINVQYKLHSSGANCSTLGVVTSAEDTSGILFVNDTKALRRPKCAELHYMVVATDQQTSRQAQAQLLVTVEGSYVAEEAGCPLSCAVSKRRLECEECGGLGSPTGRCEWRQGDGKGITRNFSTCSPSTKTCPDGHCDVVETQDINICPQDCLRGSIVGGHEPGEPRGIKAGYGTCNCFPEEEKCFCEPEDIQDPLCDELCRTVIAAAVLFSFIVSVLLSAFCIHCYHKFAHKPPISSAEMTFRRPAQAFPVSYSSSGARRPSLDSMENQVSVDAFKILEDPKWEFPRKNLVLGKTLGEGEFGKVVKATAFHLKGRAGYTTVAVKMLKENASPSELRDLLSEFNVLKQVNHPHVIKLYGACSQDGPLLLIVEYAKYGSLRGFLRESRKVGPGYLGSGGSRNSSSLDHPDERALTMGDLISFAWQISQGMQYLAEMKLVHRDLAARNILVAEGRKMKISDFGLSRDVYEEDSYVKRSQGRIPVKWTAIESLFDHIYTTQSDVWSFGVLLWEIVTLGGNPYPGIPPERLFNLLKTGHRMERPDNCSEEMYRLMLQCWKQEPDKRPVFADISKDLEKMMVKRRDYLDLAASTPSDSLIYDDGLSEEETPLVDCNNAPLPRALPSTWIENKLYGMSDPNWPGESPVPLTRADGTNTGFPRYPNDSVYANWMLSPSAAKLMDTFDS

Key:
Assay in all cases: number of time points (of 5) at which kinase-Nluc abundance scored as decreased, DMSO-normalised (count); higher = more persistent destabilization
[1] = compound: CNC(=O)c1ccccc1Nc1cc(Nc2ccc(N3CCOCC3)cc2OC)ncc1C(F)(F)F; details: 10 µM; K562; 2-18 h
G-5555 (hydrochloride) = compound: CNc1ncc2cc(-c3ccc(-c4cccc(C)n4)cc3Cl)c(=O)n(C[C@H]3OC[C@H](N)CO3)c2n1 [G-5555 (hydrochloride)]; details: 10 µM; K562; 2-18 h
[2] = compound: CNc1ncc2cc(-c3ccc(-c4cccc(C)n4)cc3Cl)c(=O)n(C[C@H]3OC[C@H](N)CO3)c2n1; details: 10 µM; K562; 2-18 h
[3] = compound: COC(=O)[C@H](CC(C)C)NC(=O)c1ccc(NC[C@@H](N)CS)cc1-c1cccc2ccccc12 [GGTI298 (Trifluoroacetate)]; details: 10 µM; K562; 2-18 h
[4] = compound: COC(=O)[C@H](CC(C)C)NC(=O)c1ccc(NC[C@@H](N)CS)cc1-c1cccc2ccccc12; details: 10 µM; K562; 2-18 h
AZD3229 Tosylate = compound: COCCOc1cc(F)c2c(Nc3ccc(NC(=O)Cn4cc(C(C)C)nn4)cc3)ncnc2c1 [AZD3229 Tosylate]; details: 10 µM; K562; 2-18 h
[5] = compound: COCCOc1cc(F)c2c(Nc3ccc(NC(=O)Cn4cc(C(C)C)nn4)cc3)ncnc2c1; details: 10 µM; K562; 2-18 h
Ferulic acid (sodium) = compound: COc1cc(/C=C/C(=O)O)ccc1O [Ferulic acid (sodium)]; details: 10 µM; K562; 2-18 h
Ferulic acid = compound: COc1cc(/C=C/C(=O)O)ccc1O [Ferulic acid]; details: 10 µM; K562; 2-18 h
ALK2-IN-4 (succinate) = compound: COc1cc2c(-c3cnn4cc(N5CCC(N6CCN(C)CC6)CC5)cnc34)ccnc2cc1F [ALK2-IN-4 (succinate)]; details: 10 µM; K562; 2-18 h
[6] = compound: COc1cc2c(-c3cnn4cc(N5CCC(N6CCN(C)CC6)CC5)cnc34)ccnc2cc1F; details: 10 µM; K562; 2-18 h
Cediranib (maleate) = compound: COc1cc2c(Oc3ccc4[nH]c(C)cc4c3F)ncnc2cc1OCCCN1CCCC1 [Cediranib (maleate)]; details: 2.5 µM; K562; 2-18 h
Cediranib = compound: COc1cc2c(Oc3ccc4[nH]c(C)cc4c3F)ncnc2cc1OCCCN1CCCC1 [Cediranib]; details: 2.5 µM; K562; 2-18 h
[7] = compound: COc1cc2c(cc1OC)-c1c(C)c3ccc(OC)c(OC)c3c[n+]1CC2 [Dehydrocorydaline (chloride)]; details: 10 µM; K562; 2-18 h
Dehydrocorydaline = compound: COc1cc2c(cc1OC)-c1c(C)c3ccc(OC)c(OC)c3c[n+]1CC2 [Dehydrocorydaline]; details: 10 µM; K562; 2-18 h
[8] = compound: COc1cc2nccc(Nc3cc(OC)c(OC)c(OC)c3)c2cc1OC [GAK inhibitor 49 (hydrochloride)]; details: 10 µM; K562; 2-18 h
GAK inhibitor 49 = compound: COc1cc2nccc(Nc3cc(OC)c(OC)c(OC)c3)c2cc1OC [GAK inhibitor 49]; details: 10 µM; K562; 2-18 h
Cabozantinib (S-malate) = compound: COc1cc2nccc(Oc3ccc(NC(=O)C4(C(=O)Nc5ccc(F)cc5)CC4)cc3)c2cc1OC [Cabozantinib (S-malate)]; details: 10 µM; K562; 2-18 h
Cabozantinib = compound: COc1cc2nccc(Oc3ccc(NC(=O)C4(C(=O)Nc5ccc(F)cc5)CC4)cc3)c2cc1OC [Cabozantinib]; details: 2.5 µM; K562; 2-18 h
KN-93 (hydrochloride) = compound: COc1ccc(S(=O)(=O)N(CCO)c2ccccc2CN(C)C/C=C/c2ccc(Cl)cc2)cc1 [KN-93 (hydrochloride)]; details: 2.5 µM; K562; 2-18 h

Target | number of time points [1] | number of time points (G-5555 (hydrochloride)) | number of time points [2] | number of time points [3] | number of time points [4] | number of time points (AZD3229 Tosylate) | number of time points [5] | number of time points (Ferulic acid (sodium)) | number of time points (Ferulic acid) | number of time points (ALK2-IN-4 (succinate)) | number of time points [6] | number of time points (Cediranib (maleate)) | number of time points (Cediranib) | number of time points [7] | number of time points (Dehydrocorydaline) | number of time points [8] | number of time points (GAK inhibitor 49) | number of time points (Cabozantinib (S-malate)) | number of time points (Cabozantinib) | number of time points (KN-93 (hydrochloride))
EGFR_L858R (UniProt P00533) | 0 | 0 | 0 | 0 | 0 | 0 | 0 | 0 | 0 | 0 | 0 | 0 | 0 | 0 | 0 | 1 | 0 | 0 | 1 | 0
PIK4CA (UniProt P42356) | 0 | 0 | 0 | 0 | 0 | 0 | 0 | 0 | 0 | 0 | 0 | 0 | 0 | 0 | 0 | 0 | 0 | 4 | 2 | 0
CHEK2 (UniProt O96017) | 0 | 0 | 0 | 0 | 0 | 0 | 0 | 0 | 0 | 0 | 0 | 0 | 0 | 0 | 0 | 0 | 0 | 0 | 1 | 0
ZAK (UniProt Q9NYL2) | 0 | 0 | 0 | 0 | 0 | 0 | 0 | 0 | 0 | 0 | 0 | 0 | 0 | 0 | 0 | 0 | 0 | 0 | 1 | 0
ERBB4_R711C (clone: ERBB4_mut) (UniProt Q15303) | 2 | 0 | 0 | 0 | 0 | 2 | 0 | 0 | 0 | 0 | 0 | 0 | 0 | 0 | 0 | 0 | 2 | 4 | 3 | 0
SYK (UniProt P43405) | 0 | 0 | 0 | 0 | 0 | 0 | 0 | 0 | 0 | 0 | 0 | 0 | 0 | 0 | 0 | 0 | 0 | 0 | 0 | 0
CDK6 (UniProt Q00534) | 0 | 0 | 0 | 0 | 0 | 0 | 0 | 0 | 0 | 0 | 0 | 0 | 0 | 0 | 0 | 0 | 0 | 2 | 0 | 0
PBK (UniProt Q96KB5) | 0 | 0 | 0 | 0 | 0 | 0 | 0 | 0 | 0 | 0 | 0 | 0 | 0 | 0 | 0 | 0 | 0 | 0 | 0 | 0
DYRK1B (UniProt Q9Y463) | 0 | 0 | 0 | 0 | 0 | 0 | 0 | 0 | 0 | 0 | 0 | 0 | 0 | 0 | 0 | 0 | 0 | 2 | 1 | 0
MAP4K2 (UniProt Q12851) | 0 | 0 | 0 | 0 | 0 | 0 | 0 | 0 | 0 | 0 | 0 | 0 | 0 | 0 | 0 | 0 | 0 | 0 | 0 | 0
AURKB (UniProt Q96GD4) | 0 | 0 | 0 | 0 | 0 | 0 | 0 | 0 | 0 | 0 | 0 | 0 | 0 | 0 | 0 | 0 | 0 | 0 | 1 | 0
PLK1 (UniProt P53350) | 0 | 0 | 0 | 0 | 0 | 0 | 0 | 0 | 0 | 0 | 0 | 0 | 0 | 0 | 0 | 0 | 0 | 2 | 3 | 0
PDGFRB (UniProt P09619) | 0 | 0 | 0 | 0 | 0 | 0 | 4 | 0 | 0 | 0 | 0 | 0 | 0 | 0 | 0 | 0 | 0 | 4 | 4 | 0
CDK2 (UniProt P24941) | 0 | 0 | 0 | 0 | 0 | 0 | 0 | 0 | 0 | 0 | 0 | 0 | 0 | 0 | 0 | 0 | 0 | 0 | 0 | 0
ROR2 (UniProt Q01974) | 0 | 0 | 0 | 0 | 0 | 0 | 0 | 0 | 0 | 0 | 0 | 0 | 0 | 0 | 0 | 0 | 0 | 1 | 0 | 0
ERN1 (UniProt O75460) | 0 | 0 | 0 | 0 | 0 | 0 | 0 | 0 | 0 | 0 | 0 | 0 | 0 | 0 | 0 | 0 | 0 | 2 | 1 | 0
ALK (UniProt Q9UM73) | 0 | 0 | 0 | 0 | 0 | 0 | 0 | 0 | 0 | 0 | 0 | 0 | 0 | 0 | 0 | 0 | 0 | 1 | 2 | 0
MAP2K2 (UniProt P36507) | 0 | 0 | 0 | 0 | 0 | 0 | 0 | 0 | 0 | 0 | 0 | 0 | 0 | 0 | 0 | 0 | 0 | 0 | 0 | 0
BMX (UniProt P51813) | 0 | 0 | 0 | 0 | 0 | 0 | 0 | 0 | 0 | 0 | 0 | 0 | 0 | 0 | 0 | 0 | 1 | 3 | 3 | 0
ZAP70 (UniProt P43403) | 0 | 0 | 0 | 0 | 0 | 0 | 0 | 0 | 0 | 0 | 0 | 0 | 0 | 0 | 0 | 0 | 0 | 0 | 0 | 0
RIOK1 (UniProt Q9BRS2) | 0 | 0 | 0 | 0 | 0 | 0 | 0 | 0 | 0 | 0 | 0 | 0 | 0 | 0 | 0 | 0 | 1 | 2 | 2 | 0
TYK2 (UniProt P29597) | 0 | 0 | 0 | 0 | 0 | 0 | 0 | 0 | 0 | 0 | 0 | 0 | 0 | 0 | 0 | 0 | 3 | 0 | 1 | 0
PDPK1 (UniProt O15530) | 0 | 2 | 0 | 0 | 0 | 0 | 0 | 0 | 0 | 0 | 0 | 0 | 0 | 0 | 0 | 4 | 4 | 4 | 4 | 0
EGFR_G719S_T790M (UniProt P00533) | 0 | 0 | 0 | 0 | 0 | 0 | 0 | 0 | 0 | 0 | 0 | 0 | 0 | 0 | 0 | 1 | 2 | 0 | 0 | 0
RET_M918T (clone: RET_mut) (UniProt P07949) | 0 | 0 | 0 | 0 | 0 | 0 | 0 | 0 | 0 | 0 | 0 | 0 | 0 | 0 | 0 | 0 | 0 | 1 | 1 | 0
MAPK1 (UniProt P28482) | 0 | 0 | 0 | 0 | 0 | 0 | 0 | 0 | 0 | 0 | 0 | 0 | 0 | 0 | 0 | 0 | 0 | 0 | 0 | 0
LIMK1 (UniProt P53667) | 0 | 0 | 0 | 0 | 0 | 0 | 0 | 0 | 0 | 0 | 0 | 0 | 0 | 0 | 0 | 3 | 3 | 2 | 3 | 0
MAPK4 (UniProt P31152) | 0 | 0 | 0 | 0 | 0 | 0 | 0 | 0 | 0 | 0 | 0 | 0 | 0 | 0 | 0 | 0 | 0 | 1 | 0 | 0

An excerpt from above, showing only number of time points (Cabozantinib) and number of time points (Dehydrocorydaline):

| Target | number of time points (Cabozantinib) | number of time points (Dehydrocorydaline) |
| --- | --- | --- |
| PLK1 (UniProt P53350) | 3 | 0 |
| PDGFRB (UniProt P09619) | 4 | 0 |
